Results published in PubChem BioAssay AID2685 (National Center for Advancing Translational Sciences (NCATS), 2010).
“And” between values parts separate entries of the source, which are not always exact repeats. Identical values can stand only once. This is one part of the list. Shown are side measurements of this screen, not its main read-out; they come without a call. Most of these compounds were active or inconclusive in the main read-out, so they are no random draw. The note in brackets gives the kind of curve behind each potency; many fits are weak.

Experiment: qHTS Assay for Lipid Storage Modulators in Drosophila S3 Cells;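 for cell number change: cells counted by Cell Tracker Red CMTPX staining in the red channel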
Conditions: BODIPY lipid droplet fluorescence, 18-24 h; for cell number change: measured here: cell count max response, cells fed with added oleic acid
Outline: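 Laser-scanning cytometry quantifies lipid droplet accumulation (500–530 nm total intensity; droplet/cell object ratio) in oleic acid-fed (400 uM added) Drosophila S3 cells treated with a concentration series. 20 uM Triacsin C defined 100% inhibition.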

[1] = measured here: cell number channel AC50, cells fed with added oleic acid
[2] = measured here: lipid fluorescence (Fed channel) AC50, cells fed with added oleic acid

| Structure (SMILES) | cell number change | AC50 [1] | AC50 [2] |
| --- | --- | --- | --- |
| O=C(O)CSc1nnc(-c2ccncc2)n1-c1ccc(Cl)cc1 | -51% | 29.1 µM [falling, single point] | 29.1 µM [falling, single point] |
| Cc1c(Cc2ccc3c(c2)OCO3)sc(NC(=O)c2ccccc2)c1C(N)=O | -42.7% | 32.6 µM [falling, single point] | 32.6 µM [falling, single point] |
| Cc1cccc(NC(=O)c2ccc(Cl)c(S(=O)(=O)N3CCc4ccccc43)c2)n1 | -1.81% |  | 13 µM [falling, partial curve, poor fit] |
| NNC(=S)Nc1cccc(Cl)c1 | -2.56% |  |  |
| O=C(CCNC(=O)c1ccc([N+](=O)[O-])cc1)NCCCN1CCCC1=O | 28.1% | 0.092 µM [rising, full curve, poor fit] |  |
| COc1cccc(CN2C(=NC(=O)C3CC3)SC3CS(=O)(=O)CC32)c1 (stereo unspecified) | 24.8% |  | 29.1 µM [rising, single point] |
| O=C(c1ccc2c(c1)N(Cc1cccc(Cl)c1)C(=O)c1ccccc1S2(=O)=O)N1CCN(c2ccccn2)CC1 |  | 2.31 µM [rising, partial curve] | 2.06 µM [rising, partial curve, poor fit] |
| O=C(O)c1cccc(N2C(=O)Nc3ccccc3N2O)c1 | -14.1% |  | 3.26 µM [falling, partial curve, poor fit] |
| CCOC(=O)c1ccc(NC(=S)NCc2ccccc2)cc1 | -3.56% |  |  |
| Cc1cc(C)cc(NC(=O)C(Sc2nnc(C)c(=O)[nH]2)c2ccccc2)c1 (stereo unspecified) | -20.5% | 0.103 µM [falling, full curve, poor fit] | 18.4 µM [falling, partial curve] |
| CC(C)N(C(=O)Cn1cc(S(=O)(=O)CC(=O)NCc2ccccc2)c2ccccc21)C(C)C | 1.08% |  | 29.1 µM [rising, single point] |
| O=C(/C=C/Nc1cccc(F)c1)c1ccco1 | 74% | 20.6 µM [rising, single point] |  |
| CC(=O)Nc1ccc(S(=O)(=O)NCC(=O)NCCc2ccc(S(N)(=O)=O)cc2)cc1 | -7.81% |  |  |
| C/C(Sc1nnc(Cc2ccccc2)o1)=C(/O)c1ccccc1 | 5.73% |  |  |
| Cc1nnc(SC(C(=O)Nc2ccc(Cl)c([N+](=O)[O-])c2)c2ccccc2)[nH]c1=O (stereo unspecified) | -10.9% | 6.51 µM [rising, single point] | 6.51 µM [rising, partial curve] |
| COC(=O)C1CCN(C(=O)c2cc(=O)[nH]c3ccccc23)CC1 |  | 2.31 µM [rising, partial curve] |  |
| CCOC(=O)C1CCN(C(=O)/C=C/c2ccc3c(c2)OCO3)CC1 | 10.1% |  |  |
| Cc1ccc(NC(=O)CN2CCC(NC(=O)c3cccc(F)c3)CC2)cc1C | -20.9% |  | 0.103 µM [falling, partial curve, poor fit] |
| Cc1nc2nc(-c3ccccc3)[nH]n2c(=O)c1C | 24.2% |  | 29.1 µM [rising, single point] |
| COc1ccc(-c2cc(OC)c3c(C)oc(C)c3c(=O)c2)cc1OC | -33% | 0.291 µM [falling, full curve, poor fit] | 1.3 µM [rising, partial curve] |

| Structure (SMILES) | cell number change | AC50 [1] | AC50 [2] |
| --- | --- | --- | --- |
| CNC(=O)c1c(NC(=O)c2ccc(S(=O)(=O)N3CCCC3)cc2)sc2c1CCN(C(C)C)C2 | 10.9% |  |  |
| CCCCN(CC)C(=O)c1ccc2c(c1)OCO2 |  |  | 0.13 µM [rising, partial curve, poor fit] |
| COc1cc(/C=N/NC(=O)CCN2CCCCC2)ccc1O | -48.7% | 29.1 µM [falling, single point] | 0.206 µM [falling, full curve] |
| COCCN(Cc1cc2cc(C)cc(C)c2nc1Cl)C(=O)Nc1ccccc1 |  |  | 0.259 µM [falling, full curve] |
| O=C(Cn1cnc2c(cnn2-c2ccc(F)cc2)c1=O)OCc1ccccc1 | 0.822% |  |  |
| CC(C)N(C(=O)CN1CCC(c2nc3ccccc3[nH]2)CC1)C(C)C | 17.6% |  | 0.82 µM [rising, single point] |
| O=C(Cc1ccc(-n2cccc2)cc1)N1CCN(c2ccccc2F)CC1 | 9.74% |  | 7.31 µM [rising, partial curve] |
| COc1ccc(-c2c(C(F)(F)F)nn(C)c2NC(=O)c2cccnc2)cc1 |  | 0.00517 µM [rising, full curve, poor fit] |  |
| O=C(Nc1ccc(Cl)cn1)c1ccccc1F | 11.7% |  | 29.1 µM [rising, single point] |
| COc1ccc(N2C(=O)CC(N3CCN(c4ccc(S(C)(=O)=O)cc4)CC3)C2=O)cc1 (stereo unspecified) | 3.06% |  | 6.51 µM [falling, single point] |
| COC(=O)c1cc2ccsc2n1Cc1nc(-c2ccc(OC)cc2)oc1C |  | 2.91 µM [rising, partial curve] |  |
| COC(=O)c1ccccc1NC(=O)COC(=O)c1ccccc1N=Nc1ccc(N(C)C)cc1 | -57.8% | 18.4 µM [falling, partial curve] | 2.06 µM [rising, partial curve] |
| Cc1ccc(C)c(N=Cc2ccc(-c3ccc([N+](=O)[O-])cc3)o2)c1 | -0.361% |  |  |
| COc1cc(Cl)ccc1OCc1cc(C(=O)N[C@H]2CCCCNC2=O)no1 | 0.567% |  | 16.4 µM [rising, partial curve] |
| O=C(Nc1ccc2[nH]ncc2c1)c1cccc(F)c1 | -15.4% |  |  |
| Cc1cc(C)n(-c2ccc(S(=O)(=O)N3CCCC3)cc2[N+](=O)[O-])n1 | -0.585% |  | 6.51 µM [falling, single point] |
| O=C(O)c1ccc2c(=O)n(Cc3ccccc3)c(SCc3ccc([N+](=O)[O-])cc3)nc2c1 | 39.4% | 29.1 µM [rising, single point] |  |
| CNC(=O)C1CCCN1S(=O)(=O)c1ccc(OC)cc1 (stereo unspecified) | -201% | 18.4 µM [falling, partial curve] |  |
| CCn1nc(C)c(/C=N/NC(=O)Cn2nnnc2N)c1C |  |  | 29.1 µM [falling, single point] |
| Cc1ccc(CN(C)Cc2cc(=O)oc3cc(C)c(Cl)cc23)cc1 | 5.74% |  | 29.1 µM [rising, single point] |

| Structure (SMILES) | cell number change | AC50 [1] | AC50 [2] |
| --- | --- | --- | --- |
| Cc1c(OCC(F)(F)F)ccnc1CS(=O)c1nc2ccccc2[nH]1 (stereo unspecified) | -33.3% and -33.6% | 29.1 µM [falling, single point] | 20.6 µM [falling, single point] and 29.1 µM [falling, single point] |
| CCOc1ccc2nc(N(CCN(CC)CC)C(=O)/C=C/c3cccs3)sc2c1 | 15.3% | 0.461 µM [rising, single point] |  |
| CN(C)C(=O)c1cc(C(=O)c2ccccc2Cl)c[nH]1 | 94.8% | 29.1 µM [rising, partial curve, poor fit] |  |
| CCCCn1c(N)c(N(CC(C)C)C(=O)c2cccc(S(=O)(=O)N3CCCCCC3)c2)c(=O)[nH]c1=O |  | 0.146 µM [falling, full curve, poor fit] |  |
| O=C(Nc1ccccc1)c1ccc2ccccc2n1 | 20% |  | 0.13 µM [falling, full curve, poor fit] |
| COc1ccc(-n2c(N)c(C(=O)NCc3ccco3)c3nc4ccccc4nc32)cc1 | -22.5% |  | 5.8 µM [rising, partial curve] |
| O=C(CCc1ccccc1)NC(=S)Nc1ccc2c(c1)C(=O)OC2 | -41.4% | 4.61 µM [falling, single point] | 6.51 µM [falling, single point] |
| O=C(c1ccc([N+](=O)[O-])cc1)N1CCN(C(=O)c2cccs2)CC1 | 13.9% | 3.66 µM [falling, single point] |  |
| CN(C(=O)CSc1nc2c(c(=O)[nH]1)CCC2)c1ccccc1 | 8.64% | 0.58 µM [falling, single point] | 0.461 µM [falling, single point] |
| CCOc1ccc(N(CC)C(=O)COc2cc(=O)n(CC)c3ccccc23)cc1 |  | 1.46 µM [rising, partial curve] |  |
| CN(C)c1ccc(N=Cc2nc(-c3ccccc3)oc2O)cc1 | 10.6% |  |  |
| Nc1nc(F)nc2c1ncn2[C@@H]1O[C@H](CO)[C@@H](O)[C@@H]1O |  |  | 1.46 µM [falling, full curve, poor fit] |
| CCC(C(=O)OCC(=O)Nc1ccccc1-c1ccccc1)c1ccccc1 (stereo unspecified) | 10.6% |  | 5.8 µM [rising, single point] |
| Cc1ccc2c(c1)COc1c3ccc(C(=O)O)cc3nn1-2 | 5.99% |  | 29.1 µM [rising, single point] |
| CCOCc1c(C(=O)NC2=Nc3ccccc3NC(CC)=C2C(=O)OCC)oc2ccccc12 | 28.6% | 1.84 µM [rising, partial curve, poor fit] |  |
| O=C(Nc1ccc(N2CCOCC2)c(F)c1)c1cccs1 | -42.4% | 14.1 µM [falling, partial curve, poor fit] | 6.31 µM [falling, single point] |
| CCc1ccc(OCC(=O)NNC(=O)CNC(=O)c2ccc(Br)o2)cc1 | 0.648% |  | 10.3 µM [rising, partial curve] |
| CC(C)(C)OC(=O)NCc1ccc(CNC(=O)c2[nH]cnc2C(=O)NCC(=O)OCc2ccccc2)cc1 | -10.5% |  | 6.51 µM [rising, single point] |
| O=C(COC(=O)CN1C(=O)C2CC=CCC2C1=O)Nc1cc(C(F)(F)F)ccc1N1CCOCC1 (stereo unspecified) | 38.6% | 32.6 µM [rising, single point] | 6.51 µM [falling, single point] |
